# Assay results reported in article PMC5996148.
# “And” between values parts separate entries of the source, which are not always exact repeats. Equal values may be shown once. The list shows a part of the results. For some of these results: The source does not settle which construct or isoform was used.
# How the values were obtained:
# Test in all cases: protein microarray (ProtoArray v5.0), streptavidin-Alexa Fluor 647
# Settings in all cases: 3'-biotin; 20 mM Tris (pH 7.5), 5 mM MgCl2, 100 mM KCl, 0.1% Tween-20, A/T-rich and random oligonucleotide blockers; temperature not stated; high values mean tight binding
# SPTB (human) = system: SPTB (human)
# SPTLC1 (human) = system: SPTLC1 (human)
# SRR (human) = system: SRR (human)
# SS18L2 = target: T1, SS18L2 (UniProt Q9UHA2)
# T1 sequence: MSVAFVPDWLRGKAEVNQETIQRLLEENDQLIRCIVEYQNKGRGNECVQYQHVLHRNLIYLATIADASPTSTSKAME
# SSBP3 (human) = system: SSBP3 (human)
# SSPN (human) = system: SSPN (human)
# SSU72 (human) = system: SSU72 (human)
# ST3GAL3 (human) = system: ST3GAL3 (human)
# STAM (human) = system: STAM (human)
# STAMBP (human) = system: STAMBP (human)
sequence,measurement,setting,value
GGGAGGCTGAGGCAGG [G4-1 biotinylated (PQS2)],binding signal,SPTB (human),-0.297 z-score
same,binding signal,SPTLC1 (human),-0.324 z-score
same,binding signal,SRR (human),-0.325 z-score
same,binding signal,SS18L2,-0.347 z-score
same,binding signal,SSBP3 (human),-0.374 z-score and -0.31 z-score
same,binding signal,SSPN (human),-0.329 z-score
same,binding signal,SSU72 (human),-0.298 z-score
same,binding signal,ST3GAL3 (human),-0.328 z-score
same,binding signal,STAM (human),-0.31 z-score
same,binding signal,STAMBP (human),-0.33 z-score
